Values quoted from earlier work as cited in patent US20080102121A1 (Elan Pharma International Limited, priority 1998, published 2008).
The name of at least one read-out is uncertain.

Conditions: fasted steady state conditions; cited from earlier work

## 4-hydroxy-2-methyl-N-(5-methyl-2-thiazolyl)-2-H-1,2-benzothiazine-3-carboxamide 1,1-dioxide [Meloxicam]
  time to mean Cmax: four to five
